PubChem BioAssay AID1259254 – NCATS | 2017

Purpose: 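Finding genes that stop cells copying their DNA twice in one cycle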 (primary screen)
Cells: human HCT116 colorectal cancer cells
Knock-down reagent: single siRNA against human genes
Timing: 3 days
Measurement: 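Imaged Hoechst DNA stain sorts each cell into a cycle phase by DNA amount; per plate, G2 fraction set to 0% for non-targeting and 100% for GMNN siRNA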
Direction: G2 robust z-score and G2 cells, % of GMNN control: higher = more G2 cells, more excess DNA replication; raw share of cells in G2: higher = larger share of cells with G2 DNA content
Active means: 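Active siRNAs have a G2 robust z of 5 or more median absolute deviations over the median, which in these data means about 38% or higher of GMNN control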
Here is an unselected part of about 59,000 reagents. About 1,550 of all reagents (2.6%) were called active. 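G2 share is only a proxy for re-replication; each gene was hit by three separate siRNAs, and active genes were retested.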 The raw values are shown without normalisation. Entries without a mark were called inactive. Reagents against one gene are numbered here. Not given: the amount of reagent.

| gene knocked down | siRNA no. | G2 robust z-score | G2 cells, % of GMNN control | raw share of cells in G2 (%) |
| --- | --- | --- | --- | --- |
| FANCF | 1 | 8.67 (active) | 64 | 35.3 |
| FANCF | 2 | 0.943 | 9.6 | 7.6 |
| FANCF | 3 | 0.343 | 5.38 | 5.63 |
| LMO7DN | 1 | 0.181 | 4.24 | 5.76 |
| LMO7DN | 2 | -0.471 | -0.344 | 3.1 |
| LMO7DN | 3 | -0.433 | -0.0764 | 3.15 |
| XRCC5 | 1 | 0.174 | 4.19 | 5.82 |
| XRCC5 | 2 | 2.67 | 21.8 | 11.6 |
| XRCC5 | 3 | -1.13 | -4.95 | 3.51 |
| BDNF | 1 | 0.774 | 8.42 | 7.58 |
| BDNF | 2 | -1.65 | -8.67 | 1.99 |
| BDNF | 3 | 1.94 | 16.6 | 10.2 |
| ATOH1 | 1 | -0.739 | -2.23 | 3.96 |
| ATOH1 | 2 | 0.173 | 4.18 | 6.56 |
| ATOH1 | 3 | -0.453 | -0.219 | 3.91 |
| PNLDC1 | 1 | -0.93 | -3.58 | 2.32 |
| PNLDC1 | 2 | -0.04 | 2.69 | 3.86 |
| PNLDC1 | 3 | -0.615 | -1.36 | 2.33 |
| ANXA4 | 1 | -0.117 | 2.15 | 4.79 |
| ANXA4 | 2 | -0.956 | -3.76 | 3.74 |
| ANXA4 | 3 | -0.254 | 1.18 | 5.12 |
| NT5C2 | 1 | 2.86 | 23.1 | 12.3 |
| NT5C2 | 2 | 0.0596 | 3.39 | 5.32 |
| NT5C2 | 3 | 1.34 | 12.4 | 7.22 |
| CX3CR1 | 1 | 0.52 | 6.63 | 8.21 |
| CX3CR1 | 2 | 2.22 | 18.6 | 11 |
| CX3CR1 | 3 | 0.129 | 3.88 | 4.46 |
| LOC642452 (retired record) | 1 | -0.045 | 2.65 | 4.02 |
| LOC642452 (retired record) | 2 | 2.36 | 19.5 | 11.2 |
| LOC642452 (retired record) | 3 | -0.747 | -2.29 | 2.55 |
| CCP110 | 1 | -0.734 | -2.2 | 4.34 |
| CCP110 | 2 | 0.18 | 4.23 | 5.71 |
| CCP110 | 3 | 1.7 | 14.9 | 8.84 |
| PKD1L1 | 1 | -0.396 | 0.183 | 3.67 |
| PKD1L1 | 2 | 0.281 | 4.94 | 4.62 |
| PKD1L1 | 3 | -1.08 | -4.61 | 1.31 |
| CDK10 | 1 | 0.154 | 4.05 | 6.95 |
| CDK10 | 2 | -0.0445 | 2.65 | 6.3 |
| CDK10 | 3 | -0.632 | -1.48 | 3.5 |
| ABHD15 | 1 | -0.513 | -0.644 | 3.83 |
| ABHD15 | 2 | -0.322 | 0.705 | 3.54 |
| ABHD15 | 3 | 0.611 | 7.27 | 3.94 |
| POLR1HASP | 1 | 0.152 | 4.04 | 6.12 |
| POLR1HASP | 2 | -0.055 | 2.58 | 5.43 |
| POLR1HASP | 3 | -0.438 | -0.112 | 2.35 |
| ANKRD2 | 1 | -1.28 | -6.02 | 2.15 |
| ANKRD2 | 2 | -0.128 | 2.07 | 4.84 |
| ANKRD2 | 3 | -0.255 | 1.17 | 3.71 |
| LOC100289495 | 1 | 2.55 | 20.9 | 13.5 |
| LOC100289495 | 2 | -0.225 | 1.39 | 4.32 |
| LOC100289495 | 3 | -0.466 | -0.312 | 3.39 |
| PRLR | 1 | -0.228 | 1.37 | 5.45 |
| PRLR | 2 | -0.463 | -0.293 | 4.05 |
| PRLR | 3 | 0.887 | 9.2 | 8.19 |
| LHFPL3 | 1 | 0.643 | 7.49 | 6.34 |
| LHFPL3 | 2 | 2.04 | 17.3 | 10.9 |
| LHFPL3 | 3 | 6.27 (active) | 47.1 | 24.8 |
| LOC100289470 | 1 | -0.886 | -3.27 | 2.81 |
| LOC100289470 | 2 | 2.65 | 21.6 | 10.5 |
| LOC100289470 | 3 | 1.31 | 12.2 | 7.61 |
| MOB3B | 1 | 0.724 | 8.06 | 8.79 |
| MOB3B | 2 | 5.04 (active) | 38.4 | 18.1 |
| MOB3B | 3 | -1.17 | -5.28 | 2.83 |
| OR2B11 | 1 | -0.604 | -1.28 | 3.69 |
| OR2B11 | 2 | 0.664 | 7.64 | 5.53 |
| OR2B11 | 3 | 1.63 | 14.4 | 7.81 |
| PLB1 | 1 | -1.19 | -5.41 | 2.72 |
| PLB1 | 2 | -0.337 | 0.598 | 4.95 |
| PLB1 | 3 | 1.56 | 13.9 | 12.6 |
